One compound from PubChem BioAssay AID602141 (Sanford-Burnham Center for Chemical Genomics, 2011) can be followed below.

Only a part is listed here, and it is no random draw. Active and inactive are the calls of the source.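 The calls were made as follows: active = corrected activity change at or below -50% at 5 µM; inactive = the rest.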

The test in a line: KKLEB cell viability reduction – uHTS, fluorescence assay plates, cytotoxicity control for CF NF-kB inhibitor project, primary screen (AID 602141). Conditions: KKLEB CF airway cells viability, ATPlite luminescence, overnight; at 5 µM; active compounds read low; cells stimulated with P. aeruginosa culture filtrate. (In general: Cellular ATP, detected with luciferase, serves as a proxy for viable cell number.)
In the case of `CN1CCN(C(=O)COc2ccc(-c3nc4ccccc4s3)cc2)CC1`, the activity change (cytotoxicity) was active: -76.1%.
